Source: PubChem BioAssay AID2685 (National Center for Advancing Translational Sciences (NCATS), 2010)
In all, about 320,000 compounds went through this assay and about 2,100 (0.66%) were called active. Inconclusive means that the source gave no clear call. Such entries were picked first, then a sample of the others. The call rests on the fitted dose curve; in most records, active means well fitted inhibition curve with a large enough effect in the signal ratio, with a control signal flat (not every such curve was filed as active); inconclusive means small, poorly fitted or top-dose-only effect, or effect the other way, or a change in a side signal; inactive means flat fitted curve, though single readings scatter; the % refers to the signal ratio. A potency beside an inconclusive call is a rough fit, not a confirmed value.

Assay: qHTS Assay for Lipid Storage Modulators in Drosophila S3 Cells
Conditions: BODIPY lipid droplet fluorescence, 18-24 h, cells fed with added oleic acid; lipid storage change, negative = inhibition: at 46.1 µM (top of the series) unless noted
In short: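 Laser-scanning cytometry quantifies lipid droplet accumulation (500–530 nm total intensity; droplet/cell object ratio) in oleic acid-fed (400 uM added) Drosophila S3 cells treated with a concentration series. 20 uM Triacsin C defined 100% inhibition.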
On the % scale 0 is the no-effect control and ±100 the full control effect; potency means the concentration at half of the fitted maximal effect.

Compound | Potency | lipid storage change, negative = inhibition
CC1(C)N=C(N)N=C(N)N1c1cccc(C(=O)O)c1 | active: 29.1 µM | –
COc1cc(NC(=O)CS(=O)(=O)c2ccc(C)cc2)cc(OC)c1OC | inconclusive: 29.1 µM [activator, single point] | –
COc1cc(OC)cc(C(=O)NC(C(=O)Nc2ccc(N3CCOCC3)cc2)C(C)C)c1 (centres undefined) | – | inconclusive
Cc1ccc(/C=C/S(=O)(=O)NCCC(=O)NCc2ccc(F)cc2)cc1 | active: 13 µM | –
O=C1NCCCN1Cc1ccc(F)cc1 | – | inconclusive: 55.1%
CNc1oc(Cc2ccccc2)nc1S(=O)(=O)c1ccccc1 | – | inconclusive: 66%
O=C(CC1SCCNC1=O)Nc1cccc(C(F)(F)F)c1 (centres undefined) | – | inconclusive: -56%
CCCCc1ccc(NC2=NCC(=O)N2CCc2ccccc2)cc1 | – | inconclusive: 16.7%
O=P(CCO)(c1ccccc1)c1ccccc1 | – | inconclusive: -25.1%
O=C(NC12CC3CC(CC(C3)C1)C2)c1cc(F)c(F)c(F)c1F | inconclusive: 29.1 µM [rising, single point] | –
CCOC(=O)c1c(NC(=O)/C=C/c2ccc(C)o2)sc(C)c1C | – | inconclusive: -0.899%
N=c1c2ccccc2nnn1-c1cccc(C(F)(F)F)c1 | inconclusive: 6.51 µM [cytotoxic, single point] | –
CN(C)S(=O)(=O)c1ccc(N2CCOCC2)c(C(=O)NCc2ccc3c(c2)OCO3)c1 | inconclusive: 29.1 µM [activator, single point] | –
CCCOC(=O)C1=C(C)NC2=C(C(=O)C(C(=O)OC)C(C)C2)C1c1ccc(N(CC)CC)cc1 (centres undefined) | – | inconclusive: -15.6%
CC(NC(=O)C1CCCN1S(=O)(=O)c1cccc2nsnc12)c1ccccc1 (centres undefined) | inconclusive: 6.51 µM [falling, single point] | –
CCOC(=O)c1c(-c2ccccc2)c2cc(OC)ccc2n1CCCN(C)C | – | inconclusive: -15%
CCOC(=O)c1c(-c2ccc(OC)cc2)cn2ccccc12 | – | inconclusive: 7.87% [at 9.22 µM]
Cc1c(NC(=O)C(C)OC(=O)c2ccc(Br)o2)c(=O)n(-c2ccccc2)n1C (centres undefined) | inconclusive: 0.58 µM [rising, single point] | –
COc1cc(C=O)c(Cl)cc1OCC(N)=O | – | inconclusive: -12.9% [cytotoxic]
COc1ccc(NS(=O)(=O)c2ccc(Cl)s2)cn1 | – | inconclusive: -18.7%

Compound | Potency | lipid storage change, negative = inhibition
CCCCCn1c(=O)[nH]c2cc(C(=O)NCCCN3CCCCC3CC)ccc2c1=O (centres undefined) | inconclusive: 29.1 µM [activator, single point] | –
Cc1ccc(C(=O)NCCN2CCOCC2)cc1Cl | – | inconclusive: 1.89%
C(=N\Nc1nc2ccccc2s1)/c1ccccn1 | inconclusive: 32.6 µM [falling, single point] | –
O=C(NN1CCOCC1)c1ccccc1F | – | inconclusive: 30.4%
COc1cccc(NC(=O)CNC(=O)Cn2cnc3sc4c(c3c2=O)CCCC4)c1 | – | inconclusive: 21.6%
Cn1cc(C(=O)c2ccc(Cl)cc2)cc1-c1nc2ccccc2n1C | inconclusive: 0.0651 µM [activator, full curve, poor fit] | –
COC(=O)c1cccc([N+](=O)[O-])c1CN1CCCC(C(N)=O)C1 (centres undefined) | – | inconclusive: -1.94%
COc1cccc(CNC(=O)C2(C)Oc3ccccc3NC2=O)c1 (centres undefined) | active: 23.1 µM | –
Cc1cc(=O)n(CCCO)c(O)c1C#N | – | inconclusive: -19.9%
NC(=O)c1ccc(-c2nnn(CC(=O)N(C3CCCCC3)C3CCS(=O)(=O)C3)n2)cc1 (centres undefined) | inconclusive: 20.6 µM [activator, single point] | –
CCN1C(=O)C(C(=O)c2ccccc2)SC1=S (centres undefined) | inconclusive: 0.731 µM [activator, full curve] | –
Cc1cc(/C=C2\C(=O)NN(c3ccccc3)C2=O)c(C)n1-c1ccccc1O | – | inconclusive: -33.8%
CCCC[n+]1c(-c2ccc(Cl)cc2Cl)csc1Nc1ccccc1 | – | inconclusive: -18.9%
COc1ccc(N2C(=O)/C(=C/c3ccc([N+](=O)[O-])cc3)N=C2C)cc1 | – | inconclusive: -2.96%
CCOC(=O)c1ccc(CNC(=O)Cn2nnc(-c3cccc(C)c3)n2)o1 | inconclusive: 0.13 µM [falling, full curve, poor fit] | –
O=C(NCCc1ccccc1)C(=O)NCC1OCCN1S(=O)(=O)c1ccc(Br)cc1 (centres undefined) | inconclusive: 23.1 µM [activator, partial curve] | –
CC1=C(C(=O)OCC2CCCO2)C(c2ccncc2)C2=C(CC(C)(C)CC2=O)N1 (centres undefined) | – | inconclusive: 76.1%
CCn1c(SCC(=O)Nc2cc3oc4ccccc4c3cc2OC)nnc1-c1cccs1 | inconclusive: 32.6 µM [falling, single point] | –
O=S(=O)(c1ccccc1)N1CCC(O)(CSc2ccc(Cl)cc2)CC1 | – | inconclusive: 8.22%

Ordered by molecular weight (rising): some entries from above.
Compound | Potency | lipid storage change, negative = inhibition
O=C(NN1CCOCC1)c1ccccc1F | – | inconclusive: 30.4%
CNc1oc(Cc2ccccc2)nc1S(=O)(=O)c1ccccc1 | – | inconclusive: 66%
COc1ccc(N2C(=O)/C(=C/c3ccc([N+](=O)[O-])cc3)N=C2C)cc1 | – | inconclusive: -2.96%
